From PubChem BioAssay AID493014 (National Center for Advancing Translational Sciences (NCATS), 2011)
Some of the results follow. The main result of the screen is listed elsewhere. These columns were measured beside it and carry no call. Compounds called inactive in the main read-out are mostly missing here. Potencies come from curve fits of mixed quality, noted in brackets.

Experiment: qHTS Assay to Find Inhibitors of Chronic Active B-Cell Receptor Signaling
Details: ABC-DLBCL IkBa-CBG/CBR reporter, luminescence ratio (green luciferase fused to IkBa over red control in TMD8 lymphoma cells), 4 h
Method in brief: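 Doxycycline induced both beetle luciferases in TMD8 lymphoma cells; IKK-driven degradation limits the IkappaBalpha-fused green signal, while red luminescence normalises for cell number and nonspecific effects. Compounds tested up to 46 uM, 4 hrs.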

[1] = measured here: CBR red luminescence, cell number
[2] = measured here: IkBa-CBG green luminescence

**Q.** Which AC50 [1] does the source give for `O=C(CSc1nnc(Cn2c(=O)sc3ccccc32)n1-c1ccccc1)N1CCOCC1` here?
**A.** The AC50 was 15.8 µM [rising, single point].

**Q.** Which AC50 [1] does the source give for `CCN(CC)c1ccc(NC(=O)OC)cc1` here?
**A.** The AC50 was 6.51 µM [falling, single point].

**Q.** With `Cc1ccc(C(=O)N2CCc3cc(CNC(=O)CSc4ccccc4)ccc32)cc1` as the compound, how does the AC50 [2] read?
**A.** Its AC50 is 35.5 µM [rising, partial curve, poor fit].

**Q.** With `O=C(N/N=C/c1ccsc1)c1cc(-c2ccncc2)nc2ccccc12` as the compound, how does the AC50 [1] read?
**A.** The AC50 was 20.6 µM [rising, partial curve, poor fit].

**Q.** And the AC50 [2]?
**A.** The AC50 was 16.4 µM [falling, single point].

**Q.** Which AC50 [1] does the source give for `O=C1C2C(c3ccccc3)C=CC(c3ccccc3)C2C(=O)N1C1CCCCC1` (configuration not stated) here?
**A.** The AC50 was 2.91 µM [rising, single point].

**Q.** Which AC50 [1] does the source give for `FC(F)(F)c1nnc(-c2ccccc2)nc1Sc1ccccc1` here?
**A.** The AC50 was 35.5 µM [falling, single point].

**Q.** For `COc1cccc(Nc2ccc(Nc3cccc(OC)c3)nn2)c1`, which AC50 [1] is on record?
**A.** Its AC50 is 1.64 µM [falling, full curve].

**Q.** And the AC50 [2]?
**A.** The AC50 was 23.1 µM [rising, partial curve, poor fit].

**Q.** Which AC50 [1] does the source give for `COc1ccc(NC(=O)COC(=O)CNC(=O)c2cccs2)cc1Cl` here?
**A.** Its AC50 is 29.1 µM [rising, single point].

**Q.** For `Cc1ccc(/C=N/NC(=O)c2csc(C)c2)o1`, which AC50 [1] is on record?
**A.** Its AC50 is 20.6 µM [falling, partial curve, poor fit].

**Q.** Which AC50 [1] does the source give for `NS(=O)(=O)c1ccc(NC(=O)COC(=O)c2ccc([N+](=O)[O-])s2)cc1` here?
**A.** The AC50 was 35.5 µM [falling, single point].

**Q.** Which AC50 [1] does the source give for `COC(=O)c1sccc1-c1ccc(C(=O)Nc2cccc(Cl)c2)o1` here?
**A.** Its AC50 is 0.891 µM [falling, partial curve, poor fit].

**Q.** Which AC50 [1] does the source give for `Cc1cccc(NC(=S)N(Cc2cccc(Br)c2)CC2CCC(C(=O)O)CC2)c1` (configuration not stated) here?
**A.** Its AC50 is 35.5 µM [falling, single point].

**Q.** What about the AC50 [2] of the same compound?
**A.** The AC50 was 12.6 µM [rising, partial curve, poor fit].

**Q.** With `CCCC(=O)N1CCC(O)(c2cccc(F)c2)CC1` as the compound, how does the AC50 [1] read?
**A.** Its AC50 is 14.1 µM [rising, single point].

**Q.** Which AC50 [1] does the source give for `CC(C)Oc1ccc(CNC(=O)CCC(=O)N2CC(C)Sc3ccccc32)cc1` (configuration not stated) here?
**A.** The AC50 was 35.5 µM [falling, partial curve, poor fit].

**Q.** With `CC(Oc1ccc(-c2nccc(-c3ccccn3)n2)cc1)C(=O)NN` (configuration not stated) as the compound, how does the AC50 [1] read?
**A.** Its AC50 is 15.8 µM [falling, partial curve, poor fit].

**Q.** Which AC50 [1] does the source give for `Cc1ccccc1-c1cc(C(=O)NCC2CC2)nn1CC1CC(c2cccc([N+](=O)[O-])c2)=NO1` (configuration not stated) here?
**A.** Its AC50 is 29.1 µM [falling, single point].

**Q.** For `CCCc1nnc(NC(=O)c2cccnc2)s1`, which AC50 [1] is on record?
**A.** The AC50 was 11.2 µM [falling, single point].

**Q.** Which AC50 [1] does the source give for `COc1ccc(/C=N/NC(=O)c2ccc3nc[nH]c3c2)c(OC)c1OC` here?
**A.** Its AC50 is 0.794 µM [falling, full curve, poor fit].

**Q.** For `CC(C(=O)O)N1c2cccc3cccc(c23)S1(=O)=O` (configuration not stated), which AC50 [1] is on record?
**A.** The AC50 was 7.08 µM [rising, partial curve, poor fit].

**Q.** For `Cc1ccc(NC(=O)/C(C#N)=C/c2cccs2)c(C)c1`, which AC50 [1] is on record?
**A.** The AC50 was 29.1 µM [rising, single point].

**Q.** With `COc1ccc(NC(=O)Nc2cccc3c2O[C@H](CN(C)C(=O)Nc2ccc4c(c2)OCO4)[C@@H](C)CN([C@H](C)CO)C3=O)cc1` as the compound, how does the AC50 [1] read?
**A.** The AC50 was 6.51 µM [rising, single point].

**Q.** Which AC50 [1] does the source give for `NC1=NC[C@H](c2ccccc2)N1CCc1cccc(F)c1` here?
**A.** Its AC50 is 1.12 µM [rising, full curve, poor fit].

**Q.** For `CC(C)CC1(C(=O)NCc2cc(F)cc(C(F)(F)F)c2)C=CCN1C(=O)c1ccccc1` (configuration not stated), which AC50 [1] is on record?
**A.** The AC50 was 2.31 µM [falling, full curve, poor fit].

**Q.** For `Cc1cccc(OCC(=O)Nc2cc(NC(=O)COc3cccc(C)c3C)cc(C(=O)O)c2)c1C`, which AC50 [1] is on record?
**A.** Its AC50 is 0.1 µM [rising, full curve, poor fit].

**Q.** For `O=C(Nc1cccc(NC(=O)c2ccc([N+](=O)[O-])o2)c1)c1ccco1`, which AC50 [1] is on record?
**A.** The AC50 was 10 µM [falling, partial curve, poor fit].

**Q.** With `Cc1c(C(=O)NCCN2C(=O)S/C(=C\c3cccnc3)C2=O)cccc1[N+](=O)[O-]` as the compound, how does the AC50 [1] read?
**A.** The AC50 was 10 µM [falling, partial curve].

**Q.** With `Cc1ccc2nc(NC(=O)C3CCN(S(=O)(=O)c4cccc5nsnc45)CC3)sc2c1` as the compound, how does the AC50 [1] read?
**A.** Its AC50 is 5.17 µM [falling, full curve].

**Q.** Which AC50 [1] does the source give for `C#CCNC(=O)C1=C[C@@H](c2csc3ccccc23)[C@H](CCCO)[C@@H](OCC)O1` here?
**A.** Its AC50 is 6.31 µM [rising, single point].

**Q.** Which AC50 [1] does the source give for `COc1ccc(NC(=O)Nc2ccc(Br)c(C)c2)cc1` here?
**A.** Its AC50 is 2.51 µM [rising, full curve, poor fit].

**Q.** With `CC/C(=N\Nc1ccc([N+](=O)[O-])cc1)c1ccccc1` as the compound, how does the AC50 [1] read?
**A.** Its AC50 is 11.2 µM [falling, partial curve, poor fit].

**Q.** For `COc1ccc(NC(=O)Nc2ccc3nonc3c2)cc1`, which AC50 [1] is on record?
**A.** Its AC50 is 14.1 µM [falling, single point].

**Q.** For `CN(C)/C=N/c1ncnc2c1cnn2-c1ccc(C(F)(F)F)cn1`, which AC50 [1] is on record?
**A.** The AC50 was 5.8 µM [rising, full curve].

**Q.** Which AC50 [1] does the source give for `CCSc1nnc(NC(=O)CSc2nnc(C)c(=O)n2N)s1` here?
**A.** The AC50 was 35.5 µM [falling, single point].

**Q.** For `Nc1ccccc1C(=O)N1O[C@@H]2C=C[C@H]1CC2`, which AC50 [1] is on record?
**A.** Its AC50 is 9.2 µM [rising, partial curve, poor fit].

**Q.** For `O=C(CC1CC2CCC1C2)OCC(=O)c1c[nH]c2ccccc12` (configuration not stated), which AC50 [1] is on record?
**A.** Its AC50 is 3.98 µM [rising, single point].

**Q.** With `O=C(Nc1ccccc1)Oc1ccc[nH]c1=O` as the compound, how does the AC50 [1] read?
**A.** The AC50 was 22.4 µM [rising, single point].

**Q.** Which AC50 [1] does the source give for `Cc1c(Cc2ccc3c(c2)OCO3)sc(NC(=O)c2ccc3ccccc3c2)c1C(N)=O` here?
**A.** Its AC50 is 29.1 µM [rising, single point].

**Q.** For `COc1ccc(C(CCN(Cc2ccc(OC)c(OC)c2)C(=O)CCl)c2ccccc2)cc1` (configuration not stated), which AC50 [1] is on record?
**A.** Its AC50 is 14.6 µM [falling, partial curve, poor fit].

**Q.** Which AC50 [1] does the source give for `COC(=O)c1ccccc1-c1c2ccc(=N)cc-2oc2cc(N)ccc12` here?
**A.** Its AC50 is 13 µM [rising, partial curve, poor fit].

**Q.** For `O=c1c(S(=O)(=O)c2ccc(Cl)cc2)cn(Cc2cccc(F)c2)c2ccc(F)cc12`, which AC50 [1] is on record?
**A.** The AC50 was 0.82 µM [falling, full curve, poor fit].

**Q.** For `CC(=O)Nc1ccc(N=NC2C(=O)N(C(N)=S)N=C2C)cc1` (configuration not stated), which AC50 [1] is on record?
**A.** Its AC50 is 31.6 µM [rising, single point].

**Q.** For `COC(=O)C1=C(C)N(Cc2ccccc2)C(=NCCCCO)N[C@H]1CCc1ccccc1`, which AC50 [1] is on record?
**A.** Its AC50 is 35.5 µM [falling, single point].

**Q.** What does the source list for `CCOC(=O)COc1cccc2c(=O)n(CC(=O)NCc3ccc(F)cc3)ccc12`?
**A.** AC50 [1]: 7.94 µM [rising, partial curve, poor fit]; AC50 [2]: 5.01 µM [falling, partial curve]

**Q.** Which AC50 [1] does the source give for `c1nc(NCc2ccc3c(c2)OCO3)c2cc(-c3ccoc3)ccc2n1` here?
**A.** Its AC50 is 16.4 µM [falling, single point].

**Q.** With `O=C(COC(=O)c1ccccc1)Nc1ncc([N+](=O)[O-])s1` as the compound, how does the AC50 [1] read?
**A.** Its AC50 is 18.4 µM [falling, single point].

**Q.** For `O=C(Nc1ccc(Br)cc1F)c1sccc1-n1cccc1`, which AC50 [1] is on record?
**A.** Its AC50 is 7.08 µM [rising, partial curve].

**Q.** Which AC50 [1] does the source give for `CCOC(=O)CCCn1nc(C)n2c(cc3sccc32)c1=O` here?
**A.** The AC50 was 7.31 µM [falling, partial curve, poor fit].

**Q.** Which AC50 [1] does the source give for `Oc1ccccc1-c1nnc(SCCN2CCOCC2)n1Cc1ccccc1` here?
**A.** Its AC50 is 35.5 µM [falling, single point].

**Q.** For `Cc1cc(-c2ccccc2)nc2oc3c(c12)NC(=O)CN(c1ccccc1)C3=O`, which AC50 [1] is on record?
**A.** Its AC50 is 1.26 µM [rising, full curve].

**Q.** For `COc1ccc(Cc2nnc(NC(=O)c3cc(OC)c(OC)c(OC)c3)s2)cc1`, which AC50 [1] is on record?
**A.** The AC50 was 10 µM [rising, partial curve, poor fit].

**Q.** What about the AC50 [2] of the same compound?
**A.** The AC50 was 12.6 µM [falling, partial curve, poor fit].

**Q.** For `COc1cc(/C=N/NS(=O)(=O)c2ccc(C)cc2)ccc1OCc1cccc(C(=O)O)c1`, which AC50 [1] is on record?
**A.** Its AC50 is 5.01 µM [falling, partial curve].

**Q.** With `S=C(NCCc1ccccn1)Nc1ccccc1` as the compound, how does the AC50 [1] read?
**A.** The AC50 was 15.8 µM [falling, single point].

**Q.** Which AC50 [1] does the source give for `COc1ccccc1CCNC(=O)c1ccc(Br)s1` here?
**A.** Its AC50 is 12.6 µM [falling, single point].

**Q.** With `O=C(CCCN1C(=O)S/C(=C/c2ccccc2)C1=S)Nc1ccc(C(=O)O)cc1` as the compound, how does the AC50 [1] read?
**A.** The AC50 was 1.41 µM [falling, partial curve, poor fit].

**Q.** With `CCC(C)NS(=O)(=O)c1ccc(NC(C)=O)cc1` (configuration not stated) as the compound, how does the AC50 [1] read?
**A.** Its AC50 is 20.6 µM [rising, single point].

**Q.** With `CC(=O)[C@@H]1[C@@H]2C(=O)N(C3CCCCC3)C(=O)[C@@H]2C2c3ccccc3C=CN21` (some centres not stated) as the compound, how does the AC50 [1] read?
**A.** Its AC50 is 1.58 µM [falling, partial curve, poor fit].

**Q.** For `Cc1ccc(C(=O)N[C@@H](C)CN2C3=NC[C@H](C)N3C[C@H]2Cc2ccc(O)cc2)cc1Br`, which AC50 [1] is on record?
**A.** The AC50 was 6.31 µM [rising, single point].

**Q.** For `COc1ccc(C2CC(=O)Oc3cc(OC)ccc32)cc1` (configuration not stated), which AC50 [1] is on record?
**A.** The AC50 was 29.1 µM [rising, single point].

**Q.** For `Cc1cccc(C)c1OCc1nnc(SCC(=O)Nc2nccs2)o1`, which AC50 [2] is on record?
**A.** Its AC50 is 23.1 µM [falling, single point].

**Q.** Which AC50 [1] does the source give for `CCNc1ccc(C(=O)OCC)cc1NC(=O)c1cccc(N(C)C)c1` here?
**A.** The AC50 was 35.5 µM [rising, single point].

**Q.** What about the AC50 [2] of the same compound?
**A.** The AC50 was 20 µM [falling, single point].

**Q.** With `CCCC(=O)OCC(=O)Nc1ccc(N=Nc2ccccc2)cc1` as the compound, how does the AC50 [1] read?
**A.** Its AC50 is 5.17 µM [rising, full curve, poor fit].
